Measurements reported in PubChem BioAssay AID687031 (Broad Institute, 2013).
Screen size: about 1,400 compounds; about 50 (4%) were called active.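 The calls were made as follows: active = fitted curve reaches 30% CPE protection at or below the top valid dose, with every test run called active; inconclusive = test runs disagree, some active and some not; inactive = every test run inactive, including effects in the wrong direction.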 The list shows a part of the results. Measured potencies and affinities stand elsewhere.

Assay: antiviral rescue of DENV2-infected BHK-21 cells – cell-based, ATP luminescence, cherry-pick, dose response (AID 687031);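 also: 0% = infected DMSO wells and 100% = uninfected cell wells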
Conditions: BHK-21 DENV2 CPE protection, 5 d; at 19.5 µM (top of the series) unless noted

CPE protection (higher = active), inactive:
CCN(CC)c1ccc2cc(C(=O)NCc3ccc(F)cc3)c(=N)oc2c1 2.36%
CC(C)(CN1CCN(Cc2ccccc2)CC1)NS(=O)(=O)c1ccc(Cl)cc1 -31.2%
COc1ccc2ccccc2c1-c1sc(Nc2ccccc2)n[n+]1-c1ccc(F)cc1 -20%
CSCCC(NC(=O)COc1ccccc1)C(=O)OCCOc1ccc(C)cc1 (stereo unspecified) 16.7%
CCCCCCCCN1C(=O)[C@H](CC(=O)NCCC(C)C)C[C@@]2(C(=O)OCC)CCCC=C12 -35.5%
Cc1nc(CCNC(=O)CC2C(=O)NCCN2CC(C)C)nc2c1CCC2 (stereo unspecified) 3.16%
Cc1cccc(OCC(=O)Nc2ccc(N3CCN(C(=O)c4ccccc4)CC3)cc2)c1C -2.19%
COc1ccc(-c2oc3ccc(-c4cc(OC)c(OC)c(OC)c4)cc3c2-c2ccc(OC)nc2)cc1 -12.2%
c1ccc(-c2cn(C[C@H]3CC[C@@H]([C@@H]4CC[C@H](Cn5cc(-c6ccccc6)nn5)O4)O3)nn2)cc1 -14.3%
CC(CNC(=O)Cn1ccc(NC(=O)OCc2ccccc2)nc1=O)c1ccccc1 (stereo unspecified) -2.22%
O=C(c1cc(-c2cccs2)on1)N1CCCc2ccccc21 26.9%
COc1ccc(C#Cc2ccc([C@H]3[C@@H](CO)N4CCCCN(S(=O)(=O)c5ccccc5)C[C@@H]34)cc2)cc1 -2.09%
C[C@@H]1CN([C@@H](C)CO)C(=O)Cc2cc(NS(=O)(=O)c3cn(C)cn3)ccc2O[C@H]1CN(C)Cc1ccc(C(=O)Nc2ccccc2N)cc1 2.37%
CN(C)C(=O)c1cccc(-c2ccc3c(c2)[C@@H]2[C@@H](CCN2C(=O)Cc2ccncc2)[C@@H](CO)N3)c1 -30.7%
O=C1Nc2ccccc2SC1c1ccccc1 (stereo unspecified) 22.8%
CC1(C)CC(NC(=O)COc2ccccc2Cl)CC(C)(C)N1 17.7%
COc1ccc(C)cc1N(CC(=O)Nc1ccc(S(=O)(=O)N2CCOCC2)cc1)S(C)(=O)=O -13.8%
COc1ccc(S(=O)(=O)Nc2ccc3c(c2)C(=O)N([C@@H](C)CO)C[C@H](C)[C@H](CN(C)C(=O)Nc2ccc(C(F)(F)F)cc2)OCCCC[C@H](C)O3)cc1 -7.43%
O=C(N[C@@H]1CC[C@H](CCNC(=O)C2CCCCC2)O[C@@H]1CO)c1ccccn1 -27.2%
CCOC(=O)C1(Cc2ccccc2C)CCCN(C(=O)CCc2c(C)noc2C)C1 (stereo unspecified) 12.5%
Cc1c(C(=O)NCCCN2CCOCC2)sc2nc(-c3ccccc3)cn12 21.8%
COC(=O)C1=C(C)N(Cc2cccc(C(F)(F)F)c2)C(=NCC2CC2)NC1c1ccc(F)cc1 (stereo unspecified) 1.54%
C[C@@H]1CCCCO[C@@H](CN(C)Cc2ccc3c(c2)OCO3)[C@H](C)CN([C@@H](C)CO)C(=O)c2cc(NS(=O)(=O)c3cccs3)ccc2O1 21.8% [at 21 µM]
CCCC1CC(CCc2ccccc2)OS(=O)(=O)N1 (stereo unspecified) 10.6%
CCOC(=O)C1(C)CCN1C(=O)c1cccc(OC)c1 (stereo unspecified) -2.42%
CS(=O)(=O)NCc1ccc(C(=O)NCCOc2ccccc2)cc1 -5.24%
Cc1noc(C)c1NC(=O)Nc1ccc2c(c1)CC(=O)N([C@@H](C)CO)C[C@H](C)[C@@H](CN(C)C(=O)Nc1ccccc1)O2 4.8%
C[C@H]1[C@H](c2ccccc2)C[C@@H](C(=O)O)C1(C)C -2.52%
CN(C)CCCN1c2ccccc2Sc2ccc3ccccc3c21 6.88% [at 10 µM]
CS(=O)(=O)N1[C@@H]2c3ccc(-c4ccc(F)cc4)c(=O)n3C[C@H]1[C@H](CO)[C@H]2C(=O)NCC1CC1 -2.6%
CCCCCC(=O)N1C[C@@H](O)[C@H](n2cc(COC(=O)c3ccccc3)nn2)C[C@@H]1c1ccc(C)cc1 -2.79%
CCCCCCN1CCN(C2CN(Cc3ccc(F)cc3)S(=O)(=O)C2)CC1 (stereo unspecified) -15.2%
CNC(=O)C[C@@H]1CC[C@@H]2[C@H](COc3ccc(NC(=O)c4ccc(F)c(F)c4)cc3C(=O)N2C)O1 5.16%
COc1ccccc1CCNS(=O)(=O)CCNC(=O)c1ccc2c(c1)OCO2 -7.14%
Cc1ccc(Nc2nc(-c3sc(N)nc3C)cs2)cc1 2.24%
CC1(NC(=O)c2cc(Cl)nc3ccccc23)CCS(=O)(=O)C1 (stereo unspecified) 27.2%
CN1C(=O)c2cc(NC(=O)NC3CCCC3)ccc2OC[C@H]2O[C@@H](CC(=O)NCC3CC3)CC[C@@H]21 -8.11% [at 23.5 µM]
CCC1(c2ccccc2)NC(=O)N(CC(=O)Nc2ccccc2C(=O)N2CCCCC2)C1=O (stereo unspecified) 9.49%
C/C=C/c1ccc([C@H]2[C@@H](CO)N(C(=O)C3CCC3)[C@@H]2CNC(=O)NC(C)C)cc1 2.65%
COc1cc2cc(CCCOC(=O)CCCC(=O)O)oc(=O)c2cc1OC 24.9%
C[C@H](CO)N1C[C@H](C)[C@H](CN(C)C(=O)NC2CCCCC2)Oc2ccc(NC(=O)Cn3cnnn3)cc2C1=O -15.6%
Cc1cccc(C(=O)OCC(=O)NCc2ccc(Cl)cc2)c1 -0.771% [at 10 µM]
CC(C)(C(=O)N1CCC1(C)C(=O)NS(=O)(=O)c1cccc(Cl)c1)c1ccccc1 (stereo unspecified) -9.26%
CC1(C(=O)NCc2cccc(C(F)(F)F)c2)CCN1Cc1cc2ccccc2o1 (stereo unspecified) 5.83%
Cc1ccc(S(=O)(=O)N(c2nc(NC(C)C)nc(NC(C)C)n2)n2cnnc2)cc1 -12.8%
NNC(=O)c1ccc(-c2ccccc2F)cc1 21.4%
C[C@@H]1CCCCO[C@@H](CN(C)C(=O)Nc2ccc(C(F)(F)F)cc2)[C@H](C)CN([C@H](C)CO)C(=O)c2cc(NC(=O)Cc3ccccc3)ccc2O1 -1.75%
CN1c2ccc(Br)cc2[C@@H]2[C@@H](CCN2C(=O)C2CCCC2)[C@H]1CO 9.19%
CNC(=O)C[C@H]1CC[C@@H]2[C@H](COc3ccc(NC(=O)c4ccc(F)c(F)c4)cc3C(=O)N2C)O1 16.4% [at 21 µM]
O=C(CN1CCc2cc3c(cc2C1)OCCCO3)Nc1ccccc1 17.2%
O=C1N2CCCCC1(c1ccccc1)CCCC2 -8.51%
Cc1noc(C)c1S(=O)(=O)N(C)C[C@H]1OCCCC[C@H](C)Oc2ccc(NC(=O)NC(C)C)cc2C(=O)N([C@H](C)CO)C[C@@H]1C -0.808%
Clc1cc(Br)ccc1OCCCn1ccnc1 -13.3%
CN1c2ccc(Br)cc2[C@H]2[C@H](CCN2S(=O)(=O)c2cccc(F)c2)[C@H]1CO -9.67% [at 18 µM]
N#CCSc1ccccc1NC(=O)CN1C(=O)C(=O)N(Cc2ccccc2)C1=O -15.2%
Cn1cc(CC(=O)Nc2ccc(Nc3cccnc3)cc2)c2ccccc21 -10.5%
CC(=O)NCCC(=O)Nc1cc(S(=O)(=O)N2CCCCC2)ccc1N1CCN(C)CC1 -12%
C[C@@H]1CCCCO[C@@H](CN(C)CC2CCCCC2)[C@H](C)CN([C@H](C)CO)C(=O)c2cc(NC(=O)Nc3cccc4ccccc34)ccc2O1 -40.5%
O=C1[C@H](Cc2ccccc2)NCC=CC[C@H](c2ccc(Cl)cc2)N1Cc1ccccc1 -22.6%
CNC[C@H]1Oc2c(NS(=O)(=O)c3ccc(Cl)cc3)cccc2C(=O)N([C@@H](C)CO)C[C@@H]1C -2.5%
C[C@@H]1CN([C@@H](C)CO)C(=O)c2cc(NS(=O)(=O)c3ccc(F)cc3)ccc2O[C@@H](C)CCCCO[C@@H]1CN(C)C(=O)CCCN(C)C 13.4%
O=C1c2ccccc2C(=O)N1CC(=O)N1c2ccccc2Sc2ccc(C(F)(F)F)cc21 2.11%
C[C@H]1CN([C@@H](C)CO)C(=O)Cc2cc(NS(=O)(=O)c3cccs3)ccc2O[C@H]1CN(C)Cc1ccc2c(c1)OCO2 -4.98%
O=C(COC(=O)CNC(=O)c1ccc(Cl)cc1)Nc1ncc(C(F)(F)F)cc1Cl 9.18%
COc1ccc(S(=O)(=O)N2CCN(CC(=O)NC3CC3)CC2)cc1 -34%
OC(c1ccccc1)C(NCc1ccccc1)c1ccccc1 (stereo unspecified) -17.8%
COc1ccc(OC)c(CN2C(=O)CN(S(C)(=O)=O)CC2(C)C(=O)NCc2ccccc2)c1 (stereo unspecified) -25.8%
Cc1cccc(N(C(=O)Cn2nnc3ccccc32)C(C(=O)NC(C)(C)C)c2ccsc2)c1 (stereo unspecified) -6.52%
O=C(NNC(=O)c1ccccc1O)c1ccccc1O -25.7%
CN(C)c1ccc2c(c1)[C@H]1C[C@@H](CC(=O)NCc3ccc(Oc4ccccc4)cc3)O[C@H](CO)[C@H]1O2 -5.45%
O=C(O)CNC(=O)c1ccc(NS(=O)(=O)c2ccc3ccccc3c2)cc1 11.9%
Cc1ccc(NC(=O)CN2CCC(NC(=O)c3cccc(F)c3)CC2)cc1C 12.5%
CC(=O)Nc1cccc(C(=O)OCC(=O)Nc2ccc(Cl)cn2)c1 6.48%
COc1ccccc1CCN=C(N)NS(=O)(=O)c1ccc(F)cc1 4.03%
Cc1ccc(CN(C)c2ccc(S(=O)(=O)N3CCCC3)cn2)cc1 5.91%
C[C@@H]1CN([C@H](C)CO)C(=O)Cc2cc(NC(=O)Cn3cnnn3)ccc2O[C@@H]1CN(C)Cc1ccc(C(=O)Nc2ccccc2N)cc1 21.3% [at 18 µM]

Four entries out of the list, sorted by length of the SMILES, smallest number first.
CPE protection (higher = active), inactive:
Cn1cc(CC(=O)Nc2ccc(Nc3cccnc3)cc2)c2ccccc21 -10.5%
CCOC(=O)C1(Cc2ccccc2C)CCCN(C(=O)CCc2c(C)noc2C)C1 (stereo unspecified) 12.5%
COc1ccc(OC)c(CN2C(=O)CN(S(C)(=O)=O)CC2(C)C(=O)NCc2ccccc2)c1 (stereo unspecified) -25.8%
C[C@@H]1CCCCO[C@@H](CN(C)CC2CCCCC2)[C@H](C)CN([C@H](C)CO)C(=O)c2cc(NC(=O)Nc3cccc4ccccc34)ccc2O1 -40.5%
